Assay results from the supplement of paper PMC6078165.
The reference is the same well before dosing, and untreated signal decays as well.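 Fibroblast labels name human fibroblasts: mostly primary ones from tissues such as uterus (C12385, HUF), lung (H6013), bone (Hs27A), adrenal (HADF) and skin (WS1), plus mammary HMF and breast cancer-associated Hs343T. The cancer cells are basal-like or mesenchymal-like triple-negative breast cancer lines. The paper calls a changed response a hit when it shifts by more than 3x the replicate standard deviation. The tissue of the other fibroblasts is not given here.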

System: MDAMB231
Test: relative JC-1 red fluorescence (viability) vs pre-drug, coculture with fibroblast (fraction); higher = more viable cancer cells
Protocol: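 JC-1 labelled TNBC cells cocultured 1:1 (1,500 cells each) with CellTrace Violet stained primary or stromal fibroblasts in 384-well plates in FluoroBrite medium, treated with one of 42 anticancer drugs at 0.1, 1, 10 or 100 uM. JC-1 red fluorescence (mitochondrial integrity in cancer cells only) was read by plate reader every 8 h for 72 h. Values are normalised to each well's pre-drug value. The stock of one drug was tenfold lower, so its dose labels may be too high.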

CC(=O)c1c(C)c2cnc(Nc3ccc(N4CCNCC4)cn3)nc2n(C2CCCC2)c1=O [Palbociclib]
relative JC-1 red fluorescence
Conditions	8 h	16 h	24 h	32 h	40 h	48 h	56 h	64 h	72 h
0.1 µM, coculture fibroblast: C12385	0.781	0.74363	0.665	0.632	0.577	0.547	0.511	0.515	0.499
0.1 µM, coculture fibroblast: H6013	0.888	0.81	0.76	0.7402	0.70675	0.673	0.6566	0.641	0.6
0.1 µM, coculture fibroblast: H6019	0.77	0.663	0.677	0.632	0.595	0.595	0.562	0.571	0.551
0.1 µM, coculture fibroblast: H6076	0.8571	0.761	0.704	0.682	0.651	0.628	0.624	0.61	0.611
0.1 µM, coculture fibroblast: H6231	0.934	0.827	0.749	0.69	0.644	0.61	0.567	0.545	0.519
0.1 µM, coculture fibroblast: HADF	0.8926	0.8044	0.7377	0.709	0.669	0.619	0.596	0.586	0.538
0.1 µM, coculture fibroblast: HCFa	0.8979	0.814	0.789	0.759	0.712	0.671	0.648	0.623	0.587
0.1 µM, coculture fibroblast: HCPF	0.88115	0.779	0.718	0.699	0.654	0.617	0.582	0.558	0.541
0.1 µM, coculture fibroblast: HHSteC	0.9213	0.856	0.802	0.747	0.689	0.658	0.628	0.608	0.574
0.1 µM, coculture fibroblast: HMF	0.952	0.847	0.766	0.723	0.686	0.641	0.606	0.58	0.556
0.1 µM, coculture fibroblast: HPFa	0.93374	0.88	0.8164	0.756	0.719	0.672	0.622	0.589	0.536
0.1 µM, coculture fibroblast: HUF	0.837	0.731	0.748	0.617	0.56	0.546	0.504	0.508	0.488
0.1 µM, coculture fibroblast: Hs5	0.856	0.7718	0.722	0.692	0.661	0.617	0.589	0.56	0.548
0.1 µM, coculture fibroblast: Hs27A	0.876	0.8071	0.7678	0.7349	0.682	0.614	0.625	0.603	0.551
0.1 µM, coculture fibroblast: Hs343T	0.86	0.871	0.799	0.766	0.71	0.663	0.608	0.58	0.553
0.1 µM, coculture fibroblast: WS1	0.762	0.667	0.631	0.567	0.521	0.493	0.459	0.458	0.443
1 µM, coculture fibroblast: C12385	0.812	0.758	0.745	0.709	0.667	0.645	0.613	0.619	0.608
1 µM, coculture fibroblast: H6013	0.916	0.8657	0.8384	0.823	0.788	0.772	0.772	0.756	0.736
1 µM, coculture fibroblast: H6019	0.797	0.751	0.7038	0.685	0.6415	0.629	0.582	0.564	0.515
1 µM, coculture fibroblast: H6076	0.913	0.823	0.802	0.787	0.7611	0.739	0.7244	0.7212	0.7157
1 µM, coculture fibroblast: H6231	0.906	0.8235	0.7736	0.736	0.688	0.671	0.636	0.622	0.603
1 µM, coculture fibroblast: HADF	0.903	0.854	0.83	0.796	0.765	0.736	0.732	0.723	0.674
1 µM, coculture fibroblast: HCFa	0.899	0.8408	0.809	0.78	0.734	0.697	0.6762	0.654	0.6228
1 µM, coculture fibroblast: HCPF	0.933	0.864	0.833	0.828	0.781	0.76	0.747	0.726	0.711
1 µM, coculture fibroblast: HHSteC	0.9203	0.886	0.837	0.797	0.763	0.73	0.7	0.687	0.649
1 µM, coculture fibroblast: HMF	0.902	0.832	0.801	0.781	0.741	0.711	0.685	0.671	0.664
1 µM, coculture fibroblast: HPFa	0.862	0.88	0.854	0.792	0.854	0.838	0.815	0.747	0.683
1 µM, coculture fibroblast: HUF	0.926	0.842	0.828	0.756	0.693	0.684	0.632	0.621	0.604
1 µM, coculture fibroblast: Hs5	0.935	0.872	0.838	0.808	0.78	0.738	0.703	0.677	0.669
1 µM, coculture fibroblast: Hs27A	0.9318	0.8801	0.85076	0.823	0.774	0.712	0.721	0.703	0.659
1 µM, coculture fibroblast: Hs343T	0.831	0.864	0.805	0.771	0.709	0.666	0.625	0.609	0.589
1 µM, coculture fibroblast: WS1	0.7975	0.71635	0.6777	0.63	0.599	0.5857	0.547	0.5466	0.531
10 µM, coculture fibroblast: C12385	0.806	0.852	0.732	0.84	0.815	0.807	0.776	0.78	0.758
10 µM, coculture fibroblast: H6013	0.98	0.975	0.927	0.861	0.884	0.942	0.823	0.858	0.832
10 µM, coculture fibroblast: H6019	0.841	0.836	0.769	0.825	0.816	0.814	0.788	0.781	0.759
10 µM, coculture fibroblast: H6076	0.971	0.953	0.944	0.945	0.932	0.921	0.911	0.895	0.891
10 µM, coculture fibroblast: H6231	0.722	0.897	0.916	0.9644	0.9347	0.9	0.879	0.851	0.828
10 µM, coculture fibroblast: HADF	0.826	0.809	0.906	0.808	0.836	0.94	0.916	0.921	0.917
10 µM, coculture fibroblast: HCFa	0.979	0.96907	0.95	0.953	0.914	0.866	0.867	0.847	0.834
10 µM, coculture fibroblast: HCPF	0.9798	0.9552	0.942	0.925	0.901	0.875	0.8458	0.82	0.817
10 µM, coculture fibroblast: HHSteC	0.9745	0.99405	0.986	0.975	0.957	0.936	0.926	0.922	0.914
10 µM, coculture fibroblast: HMF	0.792	0.7385	0.7653	0.816	0.862	0.716	0.9885	0.931	0.896
10 µM, coculture fibroblast: HPFa	0.789	0.802	0.812	0.977	0.972	0.933	0.926	0.907	0.881
10 µM, coculture fibroblast: HUF	0.927	0.928	0.896	0.872	0.843	0.836	0.804	0.8	0.792
10 µM, coculture fibroblast: Hs5	0.924	0.969	0.953	0.94	0.91	0.871	0.851	0.828	0.818
10 µM, coculture fibroblast: Hs27A	0.984	0.936	0.917	0.93156	0.868	0.829	0.909	0.899	0.856
10 µM, coculture fibroblast: Hs343T	0.828	0.823	0.809	0.862	0.9256	0.842	0.852	0.942	0.847
10 µM, coculture fibroblast: WS1	0.819	0.8187	0.7295	0.811	0.806	0.794	0.778	0.788	0.759
100 µM, coculture fibroblast: C12385	0.396	0.25	0.305	0.197	0.134	0.111	0.0857	0.0843	0.0652
100 µM, coculture fibroblast: H6013	0.412	0.262	0.211	0.178	0.151	0.144	0.119	0.107	0.0806
100 µM, coculture fibroblast: H6019	0.4187	0.21	0.228	0.147	0.111	0.0947	0.0711	0.0658	0.0482
100 µM, coculture fibroblast: H6076	0.7564	0.778	0.829	0.841	0.937	0.835	0.689	0.603	0.547
100 µM, coculture fibroblast: H6231	0.884	0.813	0.747	0.93	0.908	0.808	0.667	0.6	0.503
100 µM, coculture fibroblast: HADF	0.444	0.336	0.268	0.227	0.202	0.196	0.163	0.152	0.118
100 µM, coculture fibroblast: HCFa	0.626	0.353	0.271	0.227	0.2	0.188	0.165	0.147	0.12
100 µM, coculture fibroblast: HCPF	0.772	0.711	0.859	0.804	0.893	0.903	0.772	0.699	0.604
100 µM, coculture fibroblast: HHSteC	0.546	0.31	0.254	0.213	0.185	0.175	0.145	0.132	0.105
100 µM, coculture fibroblast: HMF	0.755	0.908	0.814	0.78	0.86	0.846	0.714	0.64	0.571
100 µM, coculture fibroblast: HPFa	0.744	0.402	0.304	0.249	0.227	0.211	0.176	0.16	0.132
100 µM, coculture fibroblast: HUF	0.562	0.362	0.4015	0.281	0.233	0.212	0.182	0.171	0.153
100 µM, coculture fibroblast: Hs5	0.844	0.888	0.802	0.9864	0.893	0.7996	0.668	0.562	0.483
100 µM, coculture fibroblast: Hs27A	0.483	0.304	0.255	0.223	0.197	0.192	0.165	0.157	0.126
100 µM, coculture fibroblast: Hs343T	0.876	0.863	0.723	0.7336	0.961	0.85	0.6803	0.5914	0.469
100 µM, coculture fibroblast: WS1	0.37	0.222	0.263	0.168	0.135	0.117	0.0912	0.0906	0.0725
